Measurements reported in the supplement of paper PMC12819154, “High-throughput peptide-centric local stability assay extends protein–ligand identification to membrane proteins, tissues and bacteria” (Nature Structural & Molecular Biology, 2025).
The other results are listed elsewhere or left out. Most values lie at the level of the controls, where differences are scatter.

Sequences of proteins named here, by UniProt entry; tags and fusion partners are left off. A change or cut given only in a name is not applied to a line headed by its entry.
UniProt P52824: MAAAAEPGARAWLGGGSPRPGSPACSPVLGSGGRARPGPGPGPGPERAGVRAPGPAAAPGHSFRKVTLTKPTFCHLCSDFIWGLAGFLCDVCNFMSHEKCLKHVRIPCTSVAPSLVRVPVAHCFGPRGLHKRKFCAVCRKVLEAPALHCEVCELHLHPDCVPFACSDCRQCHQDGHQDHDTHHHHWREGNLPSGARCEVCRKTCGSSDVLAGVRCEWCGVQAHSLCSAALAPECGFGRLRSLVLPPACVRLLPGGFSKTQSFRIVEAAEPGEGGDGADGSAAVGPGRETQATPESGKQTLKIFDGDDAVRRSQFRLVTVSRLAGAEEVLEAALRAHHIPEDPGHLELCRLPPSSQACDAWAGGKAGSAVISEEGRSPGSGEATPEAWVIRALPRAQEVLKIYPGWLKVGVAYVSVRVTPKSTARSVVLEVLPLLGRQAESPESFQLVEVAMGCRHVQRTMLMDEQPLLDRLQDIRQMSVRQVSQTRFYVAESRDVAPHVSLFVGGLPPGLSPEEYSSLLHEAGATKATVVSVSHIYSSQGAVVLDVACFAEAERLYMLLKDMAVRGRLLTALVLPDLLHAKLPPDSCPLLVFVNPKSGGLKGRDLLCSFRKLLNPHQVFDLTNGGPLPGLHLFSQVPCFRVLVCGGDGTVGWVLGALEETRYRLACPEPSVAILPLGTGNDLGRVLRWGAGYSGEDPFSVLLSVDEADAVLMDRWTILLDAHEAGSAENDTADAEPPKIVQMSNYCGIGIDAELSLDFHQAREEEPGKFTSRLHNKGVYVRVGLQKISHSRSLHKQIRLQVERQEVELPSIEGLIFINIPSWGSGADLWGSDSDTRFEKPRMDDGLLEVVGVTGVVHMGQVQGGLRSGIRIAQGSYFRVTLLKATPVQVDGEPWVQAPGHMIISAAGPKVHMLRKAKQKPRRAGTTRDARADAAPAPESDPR
UniProt P52594: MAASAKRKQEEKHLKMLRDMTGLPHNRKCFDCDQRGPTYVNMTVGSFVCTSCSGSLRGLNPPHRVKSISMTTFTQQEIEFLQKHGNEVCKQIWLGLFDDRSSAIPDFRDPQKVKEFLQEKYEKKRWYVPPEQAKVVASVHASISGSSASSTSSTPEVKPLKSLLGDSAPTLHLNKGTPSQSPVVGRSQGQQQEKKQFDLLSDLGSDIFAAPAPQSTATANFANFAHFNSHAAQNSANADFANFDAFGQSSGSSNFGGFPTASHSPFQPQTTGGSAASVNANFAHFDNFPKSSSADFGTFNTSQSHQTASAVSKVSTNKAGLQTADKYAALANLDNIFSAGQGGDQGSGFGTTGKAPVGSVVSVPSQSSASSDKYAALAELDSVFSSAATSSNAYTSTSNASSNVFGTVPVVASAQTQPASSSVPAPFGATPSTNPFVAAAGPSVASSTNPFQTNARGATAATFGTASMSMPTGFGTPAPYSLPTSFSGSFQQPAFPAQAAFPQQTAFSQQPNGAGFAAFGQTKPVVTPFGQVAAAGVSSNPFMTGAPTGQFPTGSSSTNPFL
UniProt P51798: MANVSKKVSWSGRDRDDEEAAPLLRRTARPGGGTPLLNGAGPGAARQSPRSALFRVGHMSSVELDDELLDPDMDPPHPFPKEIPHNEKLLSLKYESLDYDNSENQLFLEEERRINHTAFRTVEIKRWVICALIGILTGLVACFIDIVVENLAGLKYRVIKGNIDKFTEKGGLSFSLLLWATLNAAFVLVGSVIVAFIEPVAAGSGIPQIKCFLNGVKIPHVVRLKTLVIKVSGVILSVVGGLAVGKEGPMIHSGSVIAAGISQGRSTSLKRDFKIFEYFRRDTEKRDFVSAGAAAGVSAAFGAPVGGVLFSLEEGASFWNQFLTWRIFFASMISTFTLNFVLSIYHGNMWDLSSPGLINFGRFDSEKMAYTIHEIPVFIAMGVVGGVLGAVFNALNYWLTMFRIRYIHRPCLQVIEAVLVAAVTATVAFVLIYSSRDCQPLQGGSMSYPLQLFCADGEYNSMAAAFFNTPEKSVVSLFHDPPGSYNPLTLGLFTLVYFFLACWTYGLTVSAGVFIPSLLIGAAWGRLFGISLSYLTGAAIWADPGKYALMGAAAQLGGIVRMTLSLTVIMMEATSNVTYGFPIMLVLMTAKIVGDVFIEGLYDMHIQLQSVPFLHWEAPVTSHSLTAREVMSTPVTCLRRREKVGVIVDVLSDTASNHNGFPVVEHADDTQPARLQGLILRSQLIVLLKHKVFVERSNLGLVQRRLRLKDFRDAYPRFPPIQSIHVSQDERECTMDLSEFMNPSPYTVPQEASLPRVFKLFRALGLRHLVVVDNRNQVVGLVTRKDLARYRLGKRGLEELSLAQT
UniProt P51587, whole entry: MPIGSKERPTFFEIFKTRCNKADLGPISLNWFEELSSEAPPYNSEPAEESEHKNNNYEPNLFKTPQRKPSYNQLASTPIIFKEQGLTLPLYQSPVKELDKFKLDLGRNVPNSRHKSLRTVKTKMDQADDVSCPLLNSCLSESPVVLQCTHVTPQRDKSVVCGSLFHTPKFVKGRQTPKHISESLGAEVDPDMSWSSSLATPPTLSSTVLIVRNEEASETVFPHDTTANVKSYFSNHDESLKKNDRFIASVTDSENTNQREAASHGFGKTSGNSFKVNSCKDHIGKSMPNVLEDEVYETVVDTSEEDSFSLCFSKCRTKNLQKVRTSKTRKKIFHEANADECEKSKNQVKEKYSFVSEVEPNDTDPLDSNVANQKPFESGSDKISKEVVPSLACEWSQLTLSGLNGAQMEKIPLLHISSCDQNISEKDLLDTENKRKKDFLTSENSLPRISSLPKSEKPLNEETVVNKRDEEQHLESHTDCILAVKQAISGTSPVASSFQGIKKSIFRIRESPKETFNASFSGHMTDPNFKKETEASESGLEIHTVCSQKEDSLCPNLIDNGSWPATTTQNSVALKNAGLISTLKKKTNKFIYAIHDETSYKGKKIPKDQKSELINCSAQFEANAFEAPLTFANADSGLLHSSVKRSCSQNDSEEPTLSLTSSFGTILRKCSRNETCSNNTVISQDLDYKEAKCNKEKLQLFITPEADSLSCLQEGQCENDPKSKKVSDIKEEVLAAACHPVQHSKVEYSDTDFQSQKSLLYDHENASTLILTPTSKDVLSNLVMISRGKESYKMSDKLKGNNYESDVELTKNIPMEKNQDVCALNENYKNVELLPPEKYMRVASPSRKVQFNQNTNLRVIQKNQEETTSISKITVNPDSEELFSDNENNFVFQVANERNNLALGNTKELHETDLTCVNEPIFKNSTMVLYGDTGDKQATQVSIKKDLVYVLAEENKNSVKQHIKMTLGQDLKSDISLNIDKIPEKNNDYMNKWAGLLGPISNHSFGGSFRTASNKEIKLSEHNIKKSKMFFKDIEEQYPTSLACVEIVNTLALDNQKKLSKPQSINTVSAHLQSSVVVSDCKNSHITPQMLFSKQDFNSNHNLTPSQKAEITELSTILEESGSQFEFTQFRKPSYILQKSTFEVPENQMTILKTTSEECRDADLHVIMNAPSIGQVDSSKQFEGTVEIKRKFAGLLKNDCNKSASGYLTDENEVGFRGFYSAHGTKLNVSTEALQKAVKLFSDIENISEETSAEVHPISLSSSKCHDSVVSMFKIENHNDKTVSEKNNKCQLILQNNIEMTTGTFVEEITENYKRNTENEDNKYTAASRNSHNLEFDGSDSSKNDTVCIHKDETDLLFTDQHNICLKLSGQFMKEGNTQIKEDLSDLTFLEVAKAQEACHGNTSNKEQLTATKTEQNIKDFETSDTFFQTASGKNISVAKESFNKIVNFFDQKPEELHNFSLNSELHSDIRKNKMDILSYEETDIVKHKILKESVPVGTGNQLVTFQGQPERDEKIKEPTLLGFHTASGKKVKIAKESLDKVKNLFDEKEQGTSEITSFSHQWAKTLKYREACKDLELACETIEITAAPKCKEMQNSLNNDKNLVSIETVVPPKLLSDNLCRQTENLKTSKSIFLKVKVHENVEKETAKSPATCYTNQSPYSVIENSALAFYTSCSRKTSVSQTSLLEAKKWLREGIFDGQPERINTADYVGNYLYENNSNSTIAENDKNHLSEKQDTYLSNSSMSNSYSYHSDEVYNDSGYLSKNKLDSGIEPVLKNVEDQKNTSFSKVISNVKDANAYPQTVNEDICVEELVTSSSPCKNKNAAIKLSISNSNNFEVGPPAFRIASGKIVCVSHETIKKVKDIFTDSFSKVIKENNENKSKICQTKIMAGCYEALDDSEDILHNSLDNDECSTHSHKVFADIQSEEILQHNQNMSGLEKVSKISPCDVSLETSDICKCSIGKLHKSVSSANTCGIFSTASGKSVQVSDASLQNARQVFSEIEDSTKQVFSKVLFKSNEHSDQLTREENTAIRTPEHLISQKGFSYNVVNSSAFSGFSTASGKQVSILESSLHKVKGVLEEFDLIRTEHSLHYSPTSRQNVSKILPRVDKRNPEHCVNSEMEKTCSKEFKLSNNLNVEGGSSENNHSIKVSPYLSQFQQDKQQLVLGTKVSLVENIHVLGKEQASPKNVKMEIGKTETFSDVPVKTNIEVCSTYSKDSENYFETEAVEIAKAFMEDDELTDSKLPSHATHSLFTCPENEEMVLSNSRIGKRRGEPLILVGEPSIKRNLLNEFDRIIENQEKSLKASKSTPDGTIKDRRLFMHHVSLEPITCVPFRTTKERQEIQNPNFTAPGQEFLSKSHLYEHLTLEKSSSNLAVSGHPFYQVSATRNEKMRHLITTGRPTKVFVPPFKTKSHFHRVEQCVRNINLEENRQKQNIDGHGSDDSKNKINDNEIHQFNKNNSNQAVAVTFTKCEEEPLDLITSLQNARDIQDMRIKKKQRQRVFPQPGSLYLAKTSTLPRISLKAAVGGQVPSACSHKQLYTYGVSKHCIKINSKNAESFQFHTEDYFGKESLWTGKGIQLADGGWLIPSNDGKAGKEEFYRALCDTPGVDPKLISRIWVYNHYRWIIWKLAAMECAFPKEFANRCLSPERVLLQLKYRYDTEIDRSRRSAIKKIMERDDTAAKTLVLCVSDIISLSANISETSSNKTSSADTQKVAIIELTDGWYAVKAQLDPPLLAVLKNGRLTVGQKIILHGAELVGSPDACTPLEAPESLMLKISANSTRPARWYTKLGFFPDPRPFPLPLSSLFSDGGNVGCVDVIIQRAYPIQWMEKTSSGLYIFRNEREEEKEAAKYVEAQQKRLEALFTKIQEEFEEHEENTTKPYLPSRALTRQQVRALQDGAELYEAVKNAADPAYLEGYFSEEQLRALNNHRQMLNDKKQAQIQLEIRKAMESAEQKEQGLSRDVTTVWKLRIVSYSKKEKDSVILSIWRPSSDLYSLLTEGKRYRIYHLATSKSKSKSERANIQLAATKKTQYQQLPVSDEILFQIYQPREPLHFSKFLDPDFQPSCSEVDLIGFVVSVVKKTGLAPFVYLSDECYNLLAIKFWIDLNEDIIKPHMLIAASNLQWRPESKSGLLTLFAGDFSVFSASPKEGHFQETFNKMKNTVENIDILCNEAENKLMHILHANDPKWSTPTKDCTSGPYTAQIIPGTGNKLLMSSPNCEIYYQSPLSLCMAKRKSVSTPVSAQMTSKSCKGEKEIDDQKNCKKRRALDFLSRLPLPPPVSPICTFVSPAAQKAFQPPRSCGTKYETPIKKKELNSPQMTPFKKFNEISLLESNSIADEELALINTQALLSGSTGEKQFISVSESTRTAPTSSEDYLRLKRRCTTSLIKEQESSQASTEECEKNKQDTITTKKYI
UniProt P51149, whole entry: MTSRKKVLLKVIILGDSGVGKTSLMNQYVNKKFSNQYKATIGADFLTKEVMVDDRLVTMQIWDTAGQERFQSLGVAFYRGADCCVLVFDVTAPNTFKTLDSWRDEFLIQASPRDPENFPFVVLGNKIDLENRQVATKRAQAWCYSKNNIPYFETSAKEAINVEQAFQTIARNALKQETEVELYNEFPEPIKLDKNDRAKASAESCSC
UniProt P53985: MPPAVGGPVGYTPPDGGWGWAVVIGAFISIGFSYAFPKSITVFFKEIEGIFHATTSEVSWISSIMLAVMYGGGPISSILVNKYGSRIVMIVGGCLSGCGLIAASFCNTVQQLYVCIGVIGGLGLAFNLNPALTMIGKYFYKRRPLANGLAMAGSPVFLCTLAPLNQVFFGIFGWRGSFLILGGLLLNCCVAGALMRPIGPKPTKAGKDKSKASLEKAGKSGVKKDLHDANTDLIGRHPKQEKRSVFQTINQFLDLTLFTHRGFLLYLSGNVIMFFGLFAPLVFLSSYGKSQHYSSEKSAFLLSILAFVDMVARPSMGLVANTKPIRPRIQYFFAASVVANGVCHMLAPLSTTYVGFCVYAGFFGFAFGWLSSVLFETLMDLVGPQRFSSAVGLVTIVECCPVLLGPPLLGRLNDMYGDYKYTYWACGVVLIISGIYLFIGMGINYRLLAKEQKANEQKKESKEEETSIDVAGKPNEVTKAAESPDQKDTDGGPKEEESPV

These targets were tested with CN[C@@H]1C[C@H]2O[C@@](C)([C@@H]1OC)n1c3ccccc3c3c4c(c5c6ccccc6n2c5c31)C(=O)NC4 [staurosporine] (assay: log2 fold change of tryptic peptide abundance, ligand vs vehicle (limited proteolysis) (log2 ratio); higher = more trypsin-susceptible (destabilized)). Details: ligand concentration: 20 uM; sample: K562 cleared lysate; digestion: 4 min, 22 C (HT-PELSA RT4min, Orbitrap Astral).

| Target | log2 fold change |
| --- | --- |
| DGKQ (peptide sequence: EGNLPSGAR, peptide start residue: 188) (UniProt P52824) | -0.254 |
| UniProt P51523 (peptide sequence: LYECSECR, peptide start residue: 206) | -0.174 |
| AGFG1 (peptide sequence: EFLQEKYEK, peptide start residue: 133) (UniProt P52594) | -0.316 |
| UniProt P52746 (peptide sequence: LSSITSHVAEGCR, peptide start residue: 1038) | 0.337 |
| CLCN7 (peptide sequence: TARPGGGTPLLNGAGPGAAR, peptide start residue: 27) (UniProt P51798) | 0.069 |
| UniProt P46781 (peptide sequence: KQVVNIPSFIVR, peptide start residue: 139) | 0.243 |
| INPP1 (peptide sequence: IFGAAGAGYK, peptide start residue: 284) (UniProt P49441) | -0.217 |
| BRCA2 (peptide sequence: SVVCGSLFHTPK, peptide start residue: 158) (UniProt P51587) | -0.606 |
| PRIM2 (peptide sequence: MEFSGRK, peptide start residue: 1) (UniProt P49643) | 0.409 |
| UniProt P51149 (peptide sequence: TSLMNQYVNKK, peptide start residue: 22) | 0.361 |
| SLC16A1 (peptide sequence: DLHDANTDLIGR, peptide start residue: 225) (UniProt P53985) | -0.123 |
